Data published in ChEMBL document CHEMBL5528049, “Discovery of (4-Pyrazolyl)-2-aminopyrimidines as Potent and Selective Inhibitors of Cyclin-Dependent Kinase 2” (J Med Chem, 2024).
In brackets after ≈: the same amount, converted by molar mass.

Assay: Solubility of compound in SGF by HPLC analysis
Conditions: simulated gi fluid

SMILES: CNCc1ccc(-n2cc(-c3nc(NC4CCN(S(C)(=O)=O)CC4)ncc3C#N)cn2)c(Cl)c1
- solubility: 0.221 mg/mL (≈ 441 µM)

SMILES: CS(=O)(=O)N1CCC(Nc2ncc(C(F)(F)F)c(-c3cnn(-c4ccc(C#N)cc4Cl)c3)n2)CC1
- solubility: < 0.001 mg/mL
